# Measured values: PubChem BioAssay AID493014 (National Center for Advancing Translational Sciences (NCATS), 2011)
# Screen size: about 340,000 compounds; about 170 (0.05%) were called active. This list was built around the results that the source calls inconclusive (neither active nor inactive); the mix of calls is not that of the screen. Calls follow the shape of the dose curve; as a rule, active = well fitted inhibition curve with a large enough effect in the signal ratio, with a control signal flat (not every such curve was filed as active); inconclusive = small, poorly fitted or top-dose-only effect, or effect the other way, or a change in a side signal; inactive = flat fitted curve, though single readings scatter; the % refers to the signal ratio. A potency beside an inconclusive call is a rough fit, not a confirmed value.
# Assay: qHTS Assay to Find Inhibitors of Chronic Active B-Cell Receptor Signaling;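 as to activity change, negative = inhibition: plate controls were basal doxycycline-induced cells for no effect and cells given 10 µM MG132 for full effect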
# Settings: ABC-DLBCL IkBa-CBG/CBR reporter, luminescence ratio (green luciferase fused to IkBa over red control in TMD8 lymphoma cells), 4 h; activity change, negative = inhibition: at 46.1 µM (top of the series)
# How it was run: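 Compounds up to 46 uM were incubated four hours with TMD8 cells whose green CBG68 luciferase is fused to IkappaBalpha; red CBR luminescence normalised the signal, and concentration-effect curves were fitted to fusion, red and ratio data.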
# Potency is read from the fitted curve at half-maximal effect.
SMILES,Potency,"activity change, negative = inhibition"
Cc1ccc(C(=O)N2N=C(c3ccccc3)CC2(O)C(F)(F)F)o1 (stereo not drawn),"inconclusive: 20 µM [falling, single point]",–
Nn1c(SCC(=O)Nc2cccc(C(F)(F)F)c2)nncc1=O,–,inconclusive: -6.81%
Oc1ccccc1C1N=C(c2ccccc2)NC(c2ccccc2)=N1,–,inconclusive: 23.8%
CCN1C(=O)C(=O)N(CC(=O)Nc2ccccc2OC(F)F)C1=O,–,inconclusive: -1.34%
CC(C)CC(=O)NC(=S)Nc1ccccn1,"inconclusive: 29.1 µM [falling, single point]",–
C#CCOc1ccc(C2C(C#N)=C(N)Oc3cc(O)ccc32)cc1 (stereo not drawn),–,inconclusive: -160%
O=C(NCc1ccncc1)C(=O)NCC1OCCCN1S(=O)(=O)c1ccc(F)cc1 (stereo not drawn),–,inactive
Cc1ccc2c(c1C)NC(C(=O)O)C1CC=CC21 (stereo not drawn),–,inconclusive: 13.3%
CCNc1nc(NC(C)(C)C)nc(N2CCCC2)n1,"inconclusive: 6.51 µM [rising, full curve, poor fit]",–
CC(C)[C@H](NC(=O)c1ccc(Cl)cc1Cl)C(=O)NNc1cccc(C(=O)O)c1,"inconclusive: 32.6 µM [falling, partial curve, poor fit]",–
CC1(C2CC2)NC(=O)N(CC(=O)NCC(=O)Nc2ccc(F)c(F)c2F)C1=O (stereo not drawn),–,inactive
CCOC(=O)C1CCN(S(=O)(=O)c2c(Cl)ccc3nonc23)CC1,"inconclusive: 5.01 µM [falling, single point]",–
CCCCN=C1NC(=O)C(CC(=O)NCCc2ccc(OC)cc2)S1 (stereo not drawn),–,inconclusive: 15.8%
O=C(c1cc2cc(Br)ccc2s1)N1CCOCC1,–,inconclusive: 4.4%
COc1ccc(CNc2nc3nc(C)c(Cl)c(=O)n3[nH]2)cc1,"inconclusive: 15.8 µM [falling, single point]",–
NC(=O)C(C(=O)/C=C/c1ccc(Cl)cc1)=C1SCCS1,–,inconclusive: -0.672%
COc1ccc(O)c(/C=N/NC(=O)CCC(=O)Nc2cccc(C)c2)c1,–,inactive
CCC(=O)N1CCN(c2ccc(Cl)cc2NC(=O)Cc2ccc(Cl)cc2)CC1,"inconclusive: 9.2 µM [rising, partial curve]",–
c1cc2c(cc1C1CCCCC1)c1c3n2CCN=C3CCC1,–,inconclusive: 2.49%
O=C(O)CCCC(=O)N1CCN(c2cccc(Cl)c2)CC1,–,inactive
COc1ccccc1NC(=O)CNC(=O)CC12CC3CC(CC(C3)C1)C2,–,inactive

SMILES,Potency,"activity change, negative = inhibition"
Cc1cc(NC(=O)COC(=O)c2ccc(S(=O)(=O)N3CCCc4ccccc43)cc2)no1,–,inconclusive: -5.11%
C#CCN1C(=O)C2(OCCO2)c2ccccc21,–,inactive
O=C(NCCCn1ccnc1)C1CCN(S(=O)(=O)c2cc([N+](=O)[O-])ccc2Cl)CC1,–,inconclusive: 7.26%
CCN(C[C@H]1N[C@@](C)(C(=O)OC)[C@H]2C(=O)N(C)C(=O)[C@@H]12)S(=O)(=O)c1ccc(OC(F)(F)F)cc1,–,inactive
COC(=O)c1c(NC(=O)c2cnccn2)sc2c1CCC2,–,inconclusive: 11.9%
Cc1onc(-c2c(Cl)cccc2Cl)c1-c1nc2cc(Cl)ccc2c(=O)o1,"inconclusive: 3.16 µM [falling, partial curve]",–
Cc1ccc(-c2noc(CCC(=O)NCCCN3CCN(c4ccc(F)cc4)CC3)n2)cc1,–,inactive
O=C(c1ccc(F)cc1)N1CCCC(C(=O)N2CCc3ccccc3C2)C1 (stereo not drawn),–,inactive
COc1cccc(OC)c1NC(=O)Cn1nc(C)c2ccccc2c1=O,–,inactive
CC(C)=CCCC(C)CN1CCC(n2nccc2NC(=O)c2ccc3c(c2)OCO3)CC1 (stereo not drawn),–,inconclusive: 0.312%
CC1CCCCN1S(=O)(=O)c1cc2c3c(c1)CC(=O)N3CCC2 (stereo not drawn),–,inactive
COc1cccc2c1C(=O)O/C2=C/c1ccc2c(c1)OCO2,–,inconclusive: 1.55%
COc1cc(/C=N/OCC(=O)Nc2cc(C)on2)ccc1OCc1ccccc1,–,inconclusive: 3.67%
Cc1ccc(NC(=S)N/N=C/c2ccc([N+](=O)[O-])s2)cc1,–,inconclusive: 1.71%
Cn1c(C(=O)N2CCc3ccccc3C2)cc2oc3ccccc3c21,–,inconclusive: 8.17%
O=C1N[C@H]2CC=C[C@H]2Nc2ccccc21,"inconclusive: 18.4 µM [falling, partial curve, poor fit]",–
Cc1ccc2c(Cl)cc(Cl)c(OCC(=O)NC(=O)NCc3ccco3)c2n1,–,inactive
CC(=O)OCn1ncc(N2CCOCC2)c(Br)c1=O,–,inactive
O=C(O)C1CCN(C(=O)CSc2nc3ccccc3c(=O)n2-c2ccc(Cl)cc2)CC1,"inconclusive: 12.6 µM [falling, partial curve]",–
Oc1ccc(-c2c(C3=CCCCC3)sc3ccccc23)cc1,"inconclusive: 10 µM [rising, single point]",–
Cc1ccc(CNC(=O)C(N=C2NS(=O)(=O)c3ccccc32)C(C)C)cc1 (stereo not drawn),–,inconclusive: 2.61%

SMILES,Potency,"activity change, negative = inhibition"
COCCn1nnnc1C(c1cccs1)N1CCN(c2cc(C)ccc2C)CC1 (stereo not drawn),–,inconclusive: -2.47%
CCc1nc(SCc2ccc([N+](=O)[O-])cc2)n[nH]1,–,inconclusive: 4.53%
COc1ccc(N2CCN(CCCNC(=O)c3cc(Nc4ccccc4OC)nc4ccccc34)CC2)cc1,–,inconclusive: 17.3%
COc1cc2ccccc2cc1C(=O)O,–,inactive
c1ccc(CCNc2nc3ccccc3n3nnnc23)cc1,–,inconclusive: 0.438%
Oc1ccc(-c2cnc(-c3ccc(O)cc3)nc2)cc1,–,inconclusive: 21.7%
COc1ccc2cc3c(N)nn(C(=O)c4ccc(Cl)c([N+](=O)[O-])c4)c3nc2c1,"inconclusive: 0.517 µM [falling, partial curve, poor fit]",–
CN(CC1COc2ccccc2O1)C(=O)c1cc(COc2c(F)cccc2F)on1 (stereo not drawn),–,inconclusive: 0.878%
COc1ccccc1CNC(=O)COC(=O)Cc1c(F)cccc1Cl,"inconclusive: 22.4 µM [falling, single point]",–
CSc1nc2nc3c(cc2c(=O)n1-c1ccc(C)cc1)COC(C)(C)C3,–,inconclusive: 6.46%
CC1CCN(CCCNC(=O)c2ccc3c(Cl)c4c(nc3c2)CCCC4)CC1,–,inconclusive: 0.113%
c1cnn(Cc2cnc(N3CCOCC3)s2)c1,–,inconclusive: -1.93%
O=C(Nc1nnc(Cc2ccccc2)s1)C1CCC1,–,inconclusive: 3.52%
CCCN1CCc2[nH]c(=S)[nH]c(=O)c2C1,–,inactive
Cc1ccc(C2=Nc3ccccc3NC(C)(c3ccc(C)o3)C2)o1 (stereo not drawn),–,inconclusive: 9.7%
CC1(C(=O)N2CC3(CC(c4cccc(NC(=O)COc5ccc(Cl)cc5)c4)=NO3)C[C@@H]2C(N)=O)CC1 (stereo partly drawn),"inconclusive: 15.8 µM [falling, partial curve]",–
Cc1ccc(C)c(N2N=C(C(=O)NCCN3C(=O)S/C(=C\c4cccnc4)C3=O)CCC2=O)c1,–,inconclusive: -19.7%
COc1ccc(NC(=O)CN2CCCC2c2cccs2)cc1S(=O)(=O)N1CCCCC1 (stereo not drawn),–,inconclusive: -2.34%
CC(C)CC(=O)NC(NC(=S)Nc1cccc2cccnc12)C(Cl)(Cl)Cl (stereo not drawn),–,inactive
COc1ccccc1NC(=O)N(Cc1ccco1)Cc1cc2ccc(C)c(C)c2[nH]c1=O,–,inactive
COc1ccc(/C=N/NC(=O)c2ccc(N(C)S(=O)(=O)c3ccccc3)cc2)cc1,"inconclusive: 35.5 µM [falling, single point]",–

SMILES,Potency,"activity change, negative = inhibition"
NC(=O)C1CCN(c2nc(-c3cccnc3)cs2)CC1,–,inconclusive: 19%
COc1cc2c(C#CCCO)c(-c3ccsc3)oc(=O)c2cc1OC,–,inactive
CN(C)c1cccc(Oc2nc3c(c(=O)n(C)c(=O)n3C)n2C)c1,–,inactive
O=C(COC(=O)c1cc(NS(=O)(=O)c2cccs2)ccc1O)Nc1cc(Cl)ccc1Cl,–,inconclusive: 4.22%
N#Cc1c(F)cccc1N1CCC(C#N)CC1,"inconclusive: 35.5 µM [falling, single point]",–
CCOC(=O)c1c(NC(=O)c2ccccc2)sc2c1CCc1ccccc1-2,–,inactive
COc1ccc(S(=O)(=O)N2c3ccccc3OCC2C)cc1 (stereo not drawn),"inconclusive: 7.94 µM [falling, partial curve]",–
COc1ccc(OC)c(C2C3=C(N=c4s/c(=C\c5cccc(O)c5)c(=O)n42)c2ccccc2CC3)c1 (stereo not drawn),–,inconclusive: -1.49%
Cc1ccc(-n2c(C)nc3ncnc(-c4ccccc4)c32)cc1,–,inconclusive: -2.92%
CCCCn1nc(NC(=O)CC)c2cc3cc(OC)ccc3nc21,–,inactive
N/C(=N\OC(=O)/C=C/c1ccccc1)c1ccccn1,–,inconclusive: 228%
CCCN1C(=O)/C(=C/c2c(N3CCNC(=O)C3CC(=O)OC)nc3c(C)cccn3c2=O)SC1=S (stereo not drawn),"inconclusive: 10 µM [falling, partial curve, poor fit]",–
O=C(N/N=C/c1ccc(OC(=O)c2ccc(Br)cc2)cc1)c1ccncc1,–,inactive
Cc1ccccc1CNC(=O)c1ccccc1N,"inconclusive: 9.2 µM [falling, partial curve]",–
CC(Sc1nnc(C2CC2)n1C)C(=O)Nc1ccc2c(c1)CCC2 (stereo not drawn),–,inconclusive: -0.267%
O=C(NNC(=O)c1cc(-c2cccnc2)nc2ccccc12)Nc1ccc(Cl)cc1,–,inconclusive: 10.7%
COc1ccc(-c2ccc(-c3nnc(-c4ccncc4)o3)cc2)cc1,–,inconclusive: 6.96%
COC(=O)c1ccc2nc(-c3ccc4c(c3)OCO4)cn2c1,–,inactive
Cc1ccc(S(=O)(=O)n2c(C)nc3cc(C)ccc32)cc1,–,inconclusive: 3.76%
COC(=O)c1sccc1-n1cccc1C(=O)C(=O)Nc1ccc(F)cc1,"inconclusive: 20 µM [falling, partial curve]",–

# Fetched by structure from the entries so far, 5 records:
SMILES,Potency,"activity change, negative = inhibition"
CN(C)c1cccc(Oc2nc3c(c(=O)n(C)c(=O)n3C)n2C)c1,–,inactive
COC(=O)c1sccc1-n1cccc1C(=O)C(=O)Nc1ccc(F)cc1,"inconclusive: 20 µM [falling, partial curve]",–
COc1cc2c(C#CCCO)c(-c3ccsc3)oc(=O)c2cc1OC,–,inactive
COc1ccc(S(=O)(=O)N2c3ccccc3OCC2C)cc1 (stereo not drawn),"inconclusive: 7.94 µM [falling, partial curve]",–
N/C(=N\OC(=O)/C=C/c1ccccc1)c1ccccn1,–,inconclusive: 228%
